# In article PMC12837915:
# By UniProt entry, the sequences of proteins in these tests, tags left out.
# UniProt P48431: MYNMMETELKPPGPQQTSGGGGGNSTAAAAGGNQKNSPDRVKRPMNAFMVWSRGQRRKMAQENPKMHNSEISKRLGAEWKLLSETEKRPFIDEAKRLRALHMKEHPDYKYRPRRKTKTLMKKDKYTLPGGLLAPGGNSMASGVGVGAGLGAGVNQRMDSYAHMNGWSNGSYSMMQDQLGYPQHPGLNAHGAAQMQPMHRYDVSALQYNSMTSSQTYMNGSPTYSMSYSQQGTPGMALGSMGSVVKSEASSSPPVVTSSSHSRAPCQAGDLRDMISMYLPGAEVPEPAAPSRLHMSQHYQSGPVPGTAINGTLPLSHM
# Results are given in words; binding and its absence hold for the method and conditions named. Binding seen in cells or lysates may run through a third protein. Some binding calls cover weakened binding; strength is not graded here. Where a sequence is shown, tags or fusion partners need not be part of it.
# B1: GST-ENOX2 (human tumor-associated NADH oxidase) (protein, UniProt Q16206 1-610)
# chain: MQRDFRWLWVYEIGYAADNSRTLNVDSTAMTLPMSDPTAWATAMNNLGMAPLGIAGQPILPDFDPALGMMTGIPPITPMMPGLGIVPPPIPPDMPVVKEIIHCKSCTLFPPNPNLPPPATRERPPGCKTVFVGGLPENGTEQIIVEVFEQCGEIIAIRKSKKNFCHIRFAEEYMVDKALYLSGYRIRLGSSTDKKDTGRLHVDFAQARDDLYEWECKQRMLAREERHRRRMEEERLRPPSPPPVVHYSDHECSIVAEKLKDDSKFSEAVQTLLTWIERGEVNRRSANNFYSMIQSANSHVRRLVNEKAAHEKDMEEAKEKFKQALSGILIQFEQIVAVYHSASKQKAWDHFTKAQRKNISVWCKQAEEIRNIHNDELMGIRREEEMEMSDDEIEEMTETKETEESALVSQAEALKEENDSLRWQLDAYRNEVELLKQEQGKVHREDDPNKEQQLKLLQQALQGMQQHLLKVQEEYKKKEAELEKLKDDKLQVEKMLENLKEKESCASRLCASNQDSEYPLEKTMNSSPIKSEREALLVGIISTFLHVHPFGASIEYICSYLHRLDNKICTSDVECLMGRLQHTFKQEMTGVGASLEKRWKFCGFEGLKLT
# Molecular target: SOX2 (sex-determining region Y box 2) (human (endogenous in SAS)) (UniProt P48431)
# Test: co-IP; lysates of GST-ENOX2-overexpressing SAS cells; non-immune IgG or antibodies against GST and SOX2 on Protein G agarose, overnight at 4 °C; lysis buffer 20 mM Tris-HCl pH 7.4, 100 mM NaCl, 5 mM EDTA; Western blot with anti-GST or anti-SOX2
binder,measurement,value
B1,binding,binds
